Results are given in words; binding and its absence hold for the method and conditions named. In cells and extracts the contact can be indirect. A yes stands for co-enrichment or nearness to the bait. Other partners may have been found.
Target: T1, KL (Klotho), bait of the immunoprecipitation with mass spectrometry (UniProt Q9UEF7)
T1 sequence: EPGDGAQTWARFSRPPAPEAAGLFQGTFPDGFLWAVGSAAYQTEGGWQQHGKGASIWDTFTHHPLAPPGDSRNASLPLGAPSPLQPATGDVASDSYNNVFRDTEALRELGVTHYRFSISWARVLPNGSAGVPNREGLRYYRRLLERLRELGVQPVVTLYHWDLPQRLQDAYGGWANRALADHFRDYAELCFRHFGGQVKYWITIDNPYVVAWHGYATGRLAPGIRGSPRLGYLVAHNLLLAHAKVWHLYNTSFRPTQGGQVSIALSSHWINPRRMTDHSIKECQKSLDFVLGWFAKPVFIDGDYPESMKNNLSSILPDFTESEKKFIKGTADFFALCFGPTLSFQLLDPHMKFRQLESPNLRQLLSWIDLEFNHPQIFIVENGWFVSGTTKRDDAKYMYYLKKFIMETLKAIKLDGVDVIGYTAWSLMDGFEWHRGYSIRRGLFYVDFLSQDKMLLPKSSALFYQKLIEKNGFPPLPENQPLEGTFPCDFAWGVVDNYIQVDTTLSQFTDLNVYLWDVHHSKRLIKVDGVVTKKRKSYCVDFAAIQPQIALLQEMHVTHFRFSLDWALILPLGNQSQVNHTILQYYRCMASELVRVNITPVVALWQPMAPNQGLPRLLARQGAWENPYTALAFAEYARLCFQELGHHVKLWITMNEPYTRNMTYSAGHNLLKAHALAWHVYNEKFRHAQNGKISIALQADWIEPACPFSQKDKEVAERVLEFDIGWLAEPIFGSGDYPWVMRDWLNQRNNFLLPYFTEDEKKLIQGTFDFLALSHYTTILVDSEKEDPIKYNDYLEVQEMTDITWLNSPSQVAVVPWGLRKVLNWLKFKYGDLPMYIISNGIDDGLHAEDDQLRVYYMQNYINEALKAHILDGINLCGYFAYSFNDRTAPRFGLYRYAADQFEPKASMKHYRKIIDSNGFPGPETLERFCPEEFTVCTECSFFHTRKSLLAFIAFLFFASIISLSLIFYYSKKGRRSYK
Experiment: affinity purification with mass spectrometry; immunoprecipitation of KL and mass spectrometry detection; cells not given; the paper calls it a previous IP-MS result and points to ref. 24

The chains behind the UniProt entries cited, without tags or fusion partners.
UniProt Q9Y566: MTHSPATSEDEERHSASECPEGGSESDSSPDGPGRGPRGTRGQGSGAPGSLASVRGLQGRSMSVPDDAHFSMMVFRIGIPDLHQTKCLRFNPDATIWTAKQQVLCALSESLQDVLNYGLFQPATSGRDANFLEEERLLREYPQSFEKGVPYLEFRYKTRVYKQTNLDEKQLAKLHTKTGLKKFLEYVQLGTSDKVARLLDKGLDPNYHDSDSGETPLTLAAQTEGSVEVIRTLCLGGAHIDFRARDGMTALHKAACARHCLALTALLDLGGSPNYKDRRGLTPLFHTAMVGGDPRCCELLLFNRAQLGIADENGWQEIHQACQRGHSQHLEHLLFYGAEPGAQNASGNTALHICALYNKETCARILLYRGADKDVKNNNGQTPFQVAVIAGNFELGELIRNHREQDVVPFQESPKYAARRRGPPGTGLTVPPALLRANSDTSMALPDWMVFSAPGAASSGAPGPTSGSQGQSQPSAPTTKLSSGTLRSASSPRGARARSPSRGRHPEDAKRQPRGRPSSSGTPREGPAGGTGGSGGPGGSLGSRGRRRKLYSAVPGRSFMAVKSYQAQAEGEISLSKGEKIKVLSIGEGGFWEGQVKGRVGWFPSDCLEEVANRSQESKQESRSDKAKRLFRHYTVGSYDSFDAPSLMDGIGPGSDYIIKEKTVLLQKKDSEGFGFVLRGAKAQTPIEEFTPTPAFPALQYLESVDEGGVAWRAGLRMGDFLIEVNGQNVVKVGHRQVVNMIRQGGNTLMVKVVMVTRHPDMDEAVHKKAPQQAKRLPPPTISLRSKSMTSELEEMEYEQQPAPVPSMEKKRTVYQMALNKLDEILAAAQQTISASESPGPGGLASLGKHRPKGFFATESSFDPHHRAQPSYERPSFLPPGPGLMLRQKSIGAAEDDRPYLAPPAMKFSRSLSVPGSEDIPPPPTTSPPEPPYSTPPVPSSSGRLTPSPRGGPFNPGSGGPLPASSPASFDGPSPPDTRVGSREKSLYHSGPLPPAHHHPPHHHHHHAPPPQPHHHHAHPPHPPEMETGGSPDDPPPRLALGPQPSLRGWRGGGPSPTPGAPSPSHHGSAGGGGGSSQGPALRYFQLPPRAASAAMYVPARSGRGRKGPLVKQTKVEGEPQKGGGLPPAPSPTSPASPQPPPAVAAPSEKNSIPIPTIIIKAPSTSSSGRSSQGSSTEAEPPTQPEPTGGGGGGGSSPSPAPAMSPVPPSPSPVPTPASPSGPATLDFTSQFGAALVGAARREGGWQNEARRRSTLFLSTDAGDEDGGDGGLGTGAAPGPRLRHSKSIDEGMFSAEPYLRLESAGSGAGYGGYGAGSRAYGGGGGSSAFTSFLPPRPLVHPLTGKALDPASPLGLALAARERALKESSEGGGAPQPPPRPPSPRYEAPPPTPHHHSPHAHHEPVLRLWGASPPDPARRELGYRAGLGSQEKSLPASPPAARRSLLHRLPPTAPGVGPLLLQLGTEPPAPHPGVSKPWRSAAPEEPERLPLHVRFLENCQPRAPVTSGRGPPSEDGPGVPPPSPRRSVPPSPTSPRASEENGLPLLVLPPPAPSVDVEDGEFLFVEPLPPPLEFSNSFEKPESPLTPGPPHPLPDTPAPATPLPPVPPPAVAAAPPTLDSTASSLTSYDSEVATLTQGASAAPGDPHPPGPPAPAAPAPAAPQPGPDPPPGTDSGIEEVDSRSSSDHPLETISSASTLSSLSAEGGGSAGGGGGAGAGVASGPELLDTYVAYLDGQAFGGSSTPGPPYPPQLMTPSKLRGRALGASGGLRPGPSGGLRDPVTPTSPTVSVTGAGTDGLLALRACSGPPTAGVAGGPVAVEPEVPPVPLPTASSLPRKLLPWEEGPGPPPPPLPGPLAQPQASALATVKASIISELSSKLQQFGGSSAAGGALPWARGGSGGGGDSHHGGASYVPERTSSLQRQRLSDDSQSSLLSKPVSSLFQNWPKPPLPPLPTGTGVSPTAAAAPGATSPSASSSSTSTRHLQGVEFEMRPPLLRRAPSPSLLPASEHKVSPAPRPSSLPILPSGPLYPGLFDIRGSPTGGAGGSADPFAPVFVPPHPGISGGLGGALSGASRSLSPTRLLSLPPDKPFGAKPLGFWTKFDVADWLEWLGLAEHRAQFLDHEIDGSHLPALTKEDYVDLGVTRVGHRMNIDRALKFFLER
UniProt Q00987: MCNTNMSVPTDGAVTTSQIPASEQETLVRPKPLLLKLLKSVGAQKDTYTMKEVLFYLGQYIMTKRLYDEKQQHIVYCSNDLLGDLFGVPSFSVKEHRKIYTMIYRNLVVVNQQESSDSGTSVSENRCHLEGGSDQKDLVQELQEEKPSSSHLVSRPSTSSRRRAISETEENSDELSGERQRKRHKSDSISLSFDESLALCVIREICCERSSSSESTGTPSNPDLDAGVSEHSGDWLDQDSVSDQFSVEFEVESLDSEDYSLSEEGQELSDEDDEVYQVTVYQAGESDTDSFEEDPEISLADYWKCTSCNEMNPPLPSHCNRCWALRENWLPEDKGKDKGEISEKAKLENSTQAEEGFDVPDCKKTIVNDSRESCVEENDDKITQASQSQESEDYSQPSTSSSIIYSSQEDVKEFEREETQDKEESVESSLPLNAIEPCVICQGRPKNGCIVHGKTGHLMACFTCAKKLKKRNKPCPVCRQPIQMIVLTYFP

SHANK1 found in the KL immunoprecipitate (IP-MS) (from UniProt Q9Y566 1-2161)
binding: binds

MDM2 found in the KL immunoprecipitate (IP-MS) (from UniProt Q00987 1-491)
binding: binds

— paper PMC9039064
